Some of the results follow.
Compound: CC1=C(C=C(C=C1)NC(=O)C2=CC(=CC=C2)C(C)(C)C#N)NC3=CC4=C(C=C3)N=CN(C4=O)C
Test: log2 fold change, soluble protein after heating vs DMSO (PISA); higher = thermal stabilisation; K562 cells, 10 uM, 30 min; active = over 0.2 and 3.5 SD of the protein, either way, in both replicates (recomputed)
Summary of the method: (§1)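 Values are thermal stability changes relative to control samples and are taken from duplicates. They are stated as log2 fold changes. Before quantification by TMTpro 16plex LC-MS/MS with equalised channel sums, K562 cells at 2×10^6 cells/mL were treated with 10 μM compound for 30 min, heated in aliquots for 3 min across 48°C-58°C, pooled, extracted in PBS with 0.5% NP-40 at 4°C, and centrifuged at 21,000xg for 90 min to give the soluble supernatant.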

Sequences of proteins named here, by UniProt entry; tags and fusion partners are left off. A change or cut given only in a name is not applied to a line headed by its entry.
UniProt Q9UN86: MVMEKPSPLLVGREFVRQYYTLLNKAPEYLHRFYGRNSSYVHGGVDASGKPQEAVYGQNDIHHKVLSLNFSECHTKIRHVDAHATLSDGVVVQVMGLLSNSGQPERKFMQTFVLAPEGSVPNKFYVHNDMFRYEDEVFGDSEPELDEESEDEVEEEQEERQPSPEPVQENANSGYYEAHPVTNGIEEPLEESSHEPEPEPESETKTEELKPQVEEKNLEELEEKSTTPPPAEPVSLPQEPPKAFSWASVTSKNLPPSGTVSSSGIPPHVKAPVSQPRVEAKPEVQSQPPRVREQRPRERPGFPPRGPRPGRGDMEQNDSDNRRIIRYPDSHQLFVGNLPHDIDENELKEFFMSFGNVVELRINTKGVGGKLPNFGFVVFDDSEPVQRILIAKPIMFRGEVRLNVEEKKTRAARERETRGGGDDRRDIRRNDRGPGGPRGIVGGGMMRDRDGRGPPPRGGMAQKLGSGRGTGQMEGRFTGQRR
UniProt P35637: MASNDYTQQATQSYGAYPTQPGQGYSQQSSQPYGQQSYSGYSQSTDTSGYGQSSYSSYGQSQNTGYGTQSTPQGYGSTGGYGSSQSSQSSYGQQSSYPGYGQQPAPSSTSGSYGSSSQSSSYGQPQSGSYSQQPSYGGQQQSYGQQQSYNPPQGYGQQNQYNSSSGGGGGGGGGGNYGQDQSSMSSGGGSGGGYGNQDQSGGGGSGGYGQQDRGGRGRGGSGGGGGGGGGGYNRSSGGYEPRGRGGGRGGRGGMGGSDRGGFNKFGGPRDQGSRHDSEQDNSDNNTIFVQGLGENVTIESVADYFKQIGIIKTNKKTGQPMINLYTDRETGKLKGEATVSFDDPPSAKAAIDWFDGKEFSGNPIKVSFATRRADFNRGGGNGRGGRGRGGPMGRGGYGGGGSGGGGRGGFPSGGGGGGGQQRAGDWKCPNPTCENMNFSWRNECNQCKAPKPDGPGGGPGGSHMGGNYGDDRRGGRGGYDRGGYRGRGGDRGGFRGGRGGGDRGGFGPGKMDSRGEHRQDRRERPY
UniProt Q7Z7M9: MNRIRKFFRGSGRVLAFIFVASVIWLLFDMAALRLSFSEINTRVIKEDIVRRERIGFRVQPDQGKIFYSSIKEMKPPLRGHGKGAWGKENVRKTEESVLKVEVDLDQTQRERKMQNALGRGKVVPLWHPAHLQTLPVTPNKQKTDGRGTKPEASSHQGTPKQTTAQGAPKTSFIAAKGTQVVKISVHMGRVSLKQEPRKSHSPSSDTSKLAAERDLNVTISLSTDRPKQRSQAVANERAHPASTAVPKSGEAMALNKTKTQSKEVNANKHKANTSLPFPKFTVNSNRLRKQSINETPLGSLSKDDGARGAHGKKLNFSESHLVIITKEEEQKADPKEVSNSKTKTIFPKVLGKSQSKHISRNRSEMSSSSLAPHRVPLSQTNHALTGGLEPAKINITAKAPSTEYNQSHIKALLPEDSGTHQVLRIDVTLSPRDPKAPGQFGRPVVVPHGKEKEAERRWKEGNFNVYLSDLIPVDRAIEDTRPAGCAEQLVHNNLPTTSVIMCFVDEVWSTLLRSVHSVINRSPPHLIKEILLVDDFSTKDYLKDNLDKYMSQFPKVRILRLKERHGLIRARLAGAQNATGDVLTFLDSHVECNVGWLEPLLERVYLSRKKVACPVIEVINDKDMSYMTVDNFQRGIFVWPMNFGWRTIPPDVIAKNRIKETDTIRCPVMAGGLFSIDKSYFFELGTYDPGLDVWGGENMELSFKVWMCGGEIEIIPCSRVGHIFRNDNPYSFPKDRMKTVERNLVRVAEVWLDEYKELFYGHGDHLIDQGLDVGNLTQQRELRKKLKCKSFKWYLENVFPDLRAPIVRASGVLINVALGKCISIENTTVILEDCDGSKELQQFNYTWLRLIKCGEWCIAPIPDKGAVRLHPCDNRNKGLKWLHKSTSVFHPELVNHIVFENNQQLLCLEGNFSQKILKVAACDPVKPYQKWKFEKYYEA
UniProt Q01415: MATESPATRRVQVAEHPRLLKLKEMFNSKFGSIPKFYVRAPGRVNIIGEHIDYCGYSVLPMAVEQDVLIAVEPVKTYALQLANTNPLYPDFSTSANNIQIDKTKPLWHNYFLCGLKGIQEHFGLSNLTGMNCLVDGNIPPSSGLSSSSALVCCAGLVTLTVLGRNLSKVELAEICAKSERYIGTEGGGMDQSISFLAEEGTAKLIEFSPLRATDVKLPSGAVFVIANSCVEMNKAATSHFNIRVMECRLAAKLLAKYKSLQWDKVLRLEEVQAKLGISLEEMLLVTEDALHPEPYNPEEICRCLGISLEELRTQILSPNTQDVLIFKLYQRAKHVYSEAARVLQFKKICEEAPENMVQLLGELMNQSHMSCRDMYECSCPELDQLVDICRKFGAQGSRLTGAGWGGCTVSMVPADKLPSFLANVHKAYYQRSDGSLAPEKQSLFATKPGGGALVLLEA
UniProt O75223: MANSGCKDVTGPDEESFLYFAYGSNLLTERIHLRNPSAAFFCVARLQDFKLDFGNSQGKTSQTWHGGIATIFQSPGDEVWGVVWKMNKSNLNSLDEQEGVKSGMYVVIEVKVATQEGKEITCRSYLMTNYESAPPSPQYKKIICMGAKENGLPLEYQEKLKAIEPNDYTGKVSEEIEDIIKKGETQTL
UniProt Q86SF2: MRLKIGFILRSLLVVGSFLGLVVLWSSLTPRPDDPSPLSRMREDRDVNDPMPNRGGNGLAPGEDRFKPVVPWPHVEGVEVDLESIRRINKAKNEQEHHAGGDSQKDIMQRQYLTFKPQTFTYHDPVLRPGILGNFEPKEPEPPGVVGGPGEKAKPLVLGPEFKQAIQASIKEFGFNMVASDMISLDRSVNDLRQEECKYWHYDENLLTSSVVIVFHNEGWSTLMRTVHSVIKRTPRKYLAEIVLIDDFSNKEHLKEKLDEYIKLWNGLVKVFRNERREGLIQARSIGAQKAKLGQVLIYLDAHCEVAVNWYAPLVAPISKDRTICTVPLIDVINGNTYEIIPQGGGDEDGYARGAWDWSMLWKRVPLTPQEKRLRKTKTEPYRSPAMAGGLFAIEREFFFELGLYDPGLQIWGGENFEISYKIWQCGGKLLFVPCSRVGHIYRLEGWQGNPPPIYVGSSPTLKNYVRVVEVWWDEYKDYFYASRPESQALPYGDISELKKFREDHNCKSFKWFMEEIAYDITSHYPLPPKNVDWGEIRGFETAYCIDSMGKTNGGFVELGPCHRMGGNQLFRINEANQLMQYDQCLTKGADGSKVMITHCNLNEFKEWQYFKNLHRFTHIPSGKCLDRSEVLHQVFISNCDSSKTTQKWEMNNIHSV
UniProt Q96AE4: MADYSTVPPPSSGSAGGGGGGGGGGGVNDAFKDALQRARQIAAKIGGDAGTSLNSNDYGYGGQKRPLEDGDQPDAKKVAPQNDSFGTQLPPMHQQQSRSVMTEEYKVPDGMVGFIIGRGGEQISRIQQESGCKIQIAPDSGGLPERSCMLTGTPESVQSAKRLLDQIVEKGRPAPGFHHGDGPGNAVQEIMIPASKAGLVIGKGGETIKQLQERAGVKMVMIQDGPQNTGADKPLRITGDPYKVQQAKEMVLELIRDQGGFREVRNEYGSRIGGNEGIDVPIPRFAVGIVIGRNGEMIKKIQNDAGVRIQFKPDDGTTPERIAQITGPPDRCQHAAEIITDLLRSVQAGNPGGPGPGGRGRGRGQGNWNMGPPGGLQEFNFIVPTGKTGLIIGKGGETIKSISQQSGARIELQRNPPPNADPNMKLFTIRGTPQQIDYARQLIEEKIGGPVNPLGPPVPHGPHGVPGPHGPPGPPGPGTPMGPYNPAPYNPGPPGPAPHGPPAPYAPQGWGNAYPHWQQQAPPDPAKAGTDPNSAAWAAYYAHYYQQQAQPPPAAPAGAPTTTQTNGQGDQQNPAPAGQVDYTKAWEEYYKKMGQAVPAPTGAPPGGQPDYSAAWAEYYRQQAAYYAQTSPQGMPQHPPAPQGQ
UniProt O95749: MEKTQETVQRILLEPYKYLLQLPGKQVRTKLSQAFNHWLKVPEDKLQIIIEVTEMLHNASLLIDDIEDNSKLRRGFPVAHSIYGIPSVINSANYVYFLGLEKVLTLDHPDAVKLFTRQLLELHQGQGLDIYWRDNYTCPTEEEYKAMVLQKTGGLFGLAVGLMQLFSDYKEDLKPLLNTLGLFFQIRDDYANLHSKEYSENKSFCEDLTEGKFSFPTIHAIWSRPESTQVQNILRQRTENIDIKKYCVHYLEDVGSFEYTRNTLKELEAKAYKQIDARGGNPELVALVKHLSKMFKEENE
UniProt Q9BTY2: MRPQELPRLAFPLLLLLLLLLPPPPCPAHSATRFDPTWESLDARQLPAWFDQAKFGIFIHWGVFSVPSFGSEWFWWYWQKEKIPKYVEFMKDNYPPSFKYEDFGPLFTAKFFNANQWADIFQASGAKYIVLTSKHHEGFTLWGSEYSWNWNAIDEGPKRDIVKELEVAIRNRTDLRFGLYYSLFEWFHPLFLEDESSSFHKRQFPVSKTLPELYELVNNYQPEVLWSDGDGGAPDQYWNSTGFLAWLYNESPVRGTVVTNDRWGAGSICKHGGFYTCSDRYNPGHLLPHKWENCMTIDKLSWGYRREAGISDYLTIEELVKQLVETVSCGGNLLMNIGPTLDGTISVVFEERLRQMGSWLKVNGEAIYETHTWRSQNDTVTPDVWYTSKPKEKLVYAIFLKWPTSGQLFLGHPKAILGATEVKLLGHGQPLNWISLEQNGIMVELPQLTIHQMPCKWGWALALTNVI
UniProt P23434: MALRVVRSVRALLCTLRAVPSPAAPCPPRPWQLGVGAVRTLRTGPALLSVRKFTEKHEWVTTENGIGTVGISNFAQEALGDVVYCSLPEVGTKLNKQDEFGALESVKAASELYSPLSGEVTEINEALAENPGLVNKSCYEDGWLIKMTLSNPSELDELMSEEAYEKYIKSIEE
UniProt P02792: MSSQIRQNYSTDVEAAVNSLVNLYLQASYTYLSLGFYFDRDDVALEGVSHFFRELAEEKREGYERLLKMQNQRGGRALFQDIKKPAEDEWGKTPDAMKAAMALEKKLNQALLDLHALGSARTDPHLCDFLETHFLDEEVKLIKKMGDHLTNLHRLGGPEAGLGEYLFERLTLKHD
UniProt O15117, whole entry, looked up: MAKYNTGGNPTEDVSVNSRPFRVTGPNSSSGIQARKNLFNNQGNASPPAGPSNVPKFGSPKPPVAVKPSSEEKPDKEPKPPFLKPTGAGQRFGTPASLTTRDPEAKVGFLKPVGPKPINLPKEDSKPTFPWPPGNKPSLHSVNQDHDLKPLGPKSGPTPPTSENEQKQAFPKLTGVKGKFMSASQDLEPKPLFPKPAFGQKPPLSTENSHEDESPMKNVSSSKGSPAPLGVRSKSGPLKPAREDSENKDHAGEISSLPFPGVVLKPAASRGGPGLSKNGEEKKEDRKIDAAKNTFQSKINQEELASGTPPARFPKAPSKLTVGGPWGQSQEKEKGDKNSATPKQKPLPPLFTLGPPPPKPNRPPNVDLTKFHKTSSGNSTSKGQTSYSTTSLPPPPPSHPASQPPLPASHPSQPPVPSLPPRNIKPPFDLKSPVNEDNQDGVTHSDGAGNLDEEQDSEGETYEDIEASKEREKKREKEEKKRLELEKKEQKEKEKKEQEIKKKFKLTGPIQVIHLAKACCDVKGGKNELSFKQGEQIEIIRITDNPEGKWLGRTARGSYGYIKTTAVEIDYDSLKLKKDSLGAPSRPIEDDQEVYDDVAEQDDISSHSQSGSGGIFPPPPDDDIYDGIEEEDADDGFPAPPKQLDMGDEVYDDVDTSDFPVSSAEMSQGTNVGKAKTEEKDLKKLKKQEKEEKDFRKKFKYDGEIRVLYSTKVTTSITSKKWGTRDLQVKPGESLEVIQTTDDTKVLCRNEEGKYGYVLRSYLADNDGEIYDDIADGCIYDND
UniProt P09958, whole entry, looked up: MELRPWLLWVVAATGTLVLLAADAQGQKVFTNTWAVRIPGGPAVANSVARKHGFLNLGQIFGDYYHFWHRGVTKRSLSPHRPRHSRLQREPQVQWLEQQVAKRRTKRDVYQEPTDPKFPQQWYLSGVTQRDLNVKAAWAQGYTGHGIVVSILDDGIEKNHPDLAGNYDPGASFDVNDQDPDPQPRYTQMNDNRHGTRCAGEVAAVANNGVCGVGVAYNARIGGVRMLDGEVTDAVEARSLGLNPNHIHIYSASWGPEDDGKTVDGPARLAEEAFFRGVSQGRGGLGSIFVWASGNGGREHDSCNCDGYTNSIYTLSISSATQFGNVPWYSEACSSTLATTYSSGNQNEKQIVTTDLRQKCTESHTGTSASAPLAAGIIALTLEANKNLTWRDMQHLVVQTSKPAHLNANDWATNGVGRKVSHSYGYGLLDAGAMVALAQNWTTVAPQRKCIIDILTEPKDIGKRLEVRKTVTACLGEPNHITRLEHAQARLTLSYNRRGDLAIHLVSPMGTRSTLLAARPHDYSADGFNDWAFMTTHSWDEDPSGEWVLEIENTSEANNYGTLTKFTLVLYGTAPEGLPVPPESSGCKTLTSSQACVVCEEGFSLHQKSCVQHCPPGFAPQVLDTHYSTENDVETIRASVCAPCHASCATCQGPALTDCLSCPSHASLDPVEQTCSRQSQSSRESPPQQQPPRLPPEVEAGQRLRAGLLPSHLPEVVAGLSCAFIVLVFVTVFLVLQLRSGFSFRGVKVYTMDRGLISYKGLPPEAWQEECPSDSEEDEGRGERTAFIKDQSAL

Row | Target | log2 fold change
1 | G3BP2 (UniProt Q9UN86) | inactive: 0.093
2 | GHDC (UniProt Q8N2G8) | inactive: -0.028
3 | G3BP1 (UniProt Q13283) | inactive: 0.047
4 | FUS (UniProt P35637) | inactive: -0.019
5 | GDAP1 (UniProt Q8TB36) | inactive: -0.007
6 | GALT (UniProt P07902) | inactive: -0.007
7 | GALNT5 (UniProt Q7Z7M9) | inactive: -0.006
8 | GALNT12 (UniProt Q8IXK2) | inactive: 0.019
9 | GCDH (UniProt Q92947) | inactive: -0.017
10 | GALK2 (UniProt Q01415) | inactive: 0.031
11 | GGCT (UniProt O75223) | inactive: 0.02
12 | GET4 (UniProt Q7L5D6) | inactive: -0.028
13 | GALNT7 (UniProt Q86SF2) | inactive: 0.036
14 | GCHFR (UniProt P30047) | inactive: -0.001
15 | GFM1 (UniProt Q96RP9) | inactive: 0.043
16 | GGA1 isoform 6 (UniProt Q9UJY5) | inactive: 0.006
17 | FUBP1 isoform 2 (UniProt Q96AE4) | inactive: -0.022

Row | Target | log2 fold change
18 | GADD45GIP1 (UniProt Q8TAE8) | inactive: -0.008
19 | GCLM (UniProt P48507) | inactive: 0.044
20 | GART (UniProt C9JZG2) | inactive: 0.121
21 | GEMIN5 (UniProt Q8TEQ6) | inactive: 0.035
22 | GCAT isoform 2 (UniProt O75600) | inactive: 0.033
23 | GAGE12F (UniProt P0CL80) | inactive: -0.005
24 | GALNS (UniProt P34059) | inactive: -0.123
25 | GGPS1 (UniProt O95749) | inactive: 0.005
26 | FUCA2 (UniProt Q9BTY2) | inactive: 0.015
27 | GFPT1 (UniProt Q06210) | inactive: 0.036
28 | FUBP3 (UniProt Q96I24) | inactive: 0.021
29 | GCSH (UniProt P23434) | inactive: -0.024
30 | FTL (UniProt P02792) | inactive: -0.058
31 | FYB1 isoform 3 (UniProt O15117) | inactive: 0.073
32 | FURIN (UniProt P09958) | inactive: 0.01
33 | GGNBP2 (UniProt Q9H3C7) | inactive: 0.033

Compound: CC1=C(C=C(C=C1)NC(=O)C2=CC(=CC=C2)N(C)C)NC(=O)C3=CC=C(C=C3)O
Test: as above
Summary of the method: as §1

Row | Target | log2 fold change
34 | G3BP2 (UniProt Q9UN86) | inactive: 0.043
35 | GHDC (UniProt Q8N2G8) | inactive: 0.057
36 | G3BP1 (UniProt Q13283) | inactive: 0.053
37 | FUS (UniProt P35637) | inactive: 0.026
38 | GDAP1 (UniProt Q8TB36) | inactive: -0.082
39 | GALT (UniProt P07902) | inactive: 0.097
40 | GALNT5 (UniProt Q7Z7M9) | inactive: -0.025
41 | GALNT12 (UniProt Q8IXK2) | inactive: -0.039
42 | GCDH (UniProt Q92947) | inactive: -0.004
43 | GALK2 (UniProt Q01415) | inactive: 0.015
44 | GGCT (UniProt O75223) | inactive: 0
45 | GET4 (UniProt Q7L5D6) | inactive: -0.03
46 | GALNT7 (UniProt Q86SF2) | inactive: -0.009
47 | GCHFR (UniProt P30047) | inactive: 0.03
48 | GFM1 (UniProt Q96RP9) | inactive: -0.084
49 | GGA1 isoform 6 (UniProt Q9UJY5) | inactive: -0.035
50 | FUBP1 isoform 2 (UniProt Q96AE4) | inactive: 0.005

Row | Target | log2 fold change
51 | GADD45GIP1 (UniProt Q8TAE8) | inactive: 0.038
52 | GCLM (UniProt P48507) | inactive: -0.04
53 | GART (UniProt C9JZG2) | inactive: 0.075
54 | GEMIN5 (UniProt Q8TEQ6) | inactive: -0.038
55 | GCAT isoform 2 (UniProt O75600) | inactive: -0.018
56 | GAGE12F (UniProt P0CL80) | inactive: -0.035
57 | GALNS (UniProt P34059) | inactive: 0.044
58 | GGPS1 (UniProt O95749) | inactive: 0.025
59 | FUCA2 (UniProt Q9BTY2) | inactive: 0
60 | GFPT1 (UniProt Q06210) | inactive: -0.015
61 | FUBP3 (UniProt Q96I24) | inactive: -0.018
62 | GCSH (UniProt P23434) | inactive: 0.047
63 | FTL (UniProt P02792) | inactive: 0.051
64 | FYB1 isoform 3 (UniProt O15117) | inactive: 0.063
65 | FURIN (UniProt P09958) | inactive: 0.029
66 | GGNBP2 (UniProt Q9H3C7) | inactive: 0.046

Compound: CC1=CC=C(C=C1)SC2=C3C=C(SC3=CN=C2)C(=O)N
Test: as above
Summary of the method: as §1

Row | Target | log2 fold change
67 | G3BP2 (UniProt Q9UN86) | inactive: -0.039
68 | GHDC (UniProt Q8N2G8) | inactive: -0.03
69 | G3BP1 (UniProt Q13283) | inactive: -0.075
70 | FUS (UniProt P35637) | inactive: -0.115
71 | GDAP1 (UniProt Q8TB36) | inactive: 0.001
72 | GALT (UniProt P07902) | inactive: -0.006
73 | GALNT5 (UniProt Q7Z7M9) | inactive: 0.004
74 | GALNT12 (UniProt Q8IXK2) | inactive: -0.028
75 | GCDH (UniProt Q92947) | inactive: 0.014
76 | GALK2 (UniProt Q01415) | inactive: 0.037
77 | GGCT (UniProt O75223) | inactive: -0.022
78 | GET4 (UniProt Q7L5D6) | inactive: 0.003
79 | GALNT7 (UniProt Q86SF2) | inactive: 0.072
80 | GCHFR (UniProt P30047) | inactive: 0.033
81 | GFM1 (UniProt Q96RP9) | inactive: 0.037
82 | GGA1 isoform 6 (UniProt Q9UJY5) | inactive: 0.009
83 | FUBP1 isoform 2 (UniProt Q96AE4) | inactive: -0.001

Row | Target | log2 fold change
84 | GADD45GIP1 (UniProt Q8TAE8) | inactive: -0.036
85 | GCLM (UniProt P48507) | inactive: 0.019
86 | GART (UniProt C9JZG2) | inactive: 0.048
87 | GEMIN5 (UniProt Q8TEQ6) | inactive: 0.009
88 | GCAT isoform 2 (UniProt O75600) | inactive: 0
89 | GAGE12F (UniProt P0CL80) | inactive: 0.006
90 | GALNS (UniProt P34059) | inactive: 0.031
91 | GGPS1 (UniProt O95749) | inactive: -0.015
92 | FUCA2 (UniProt Q9BTY2) | inactive: 0.016
93 | GFPT1 (UniProt Q06210) | inactive: 0.01
94 | FUBP3 (UniProt Q96I24) | inactive: 0.01
95 | GCSH (UniProt P23434) | inactive: 0.279
96 | FTL (UniProt P02792) | inactive: -0.024
97 | FYB1 isoform 3 (UniProt O15117) | inactive: 0.093
98 | FURIN (UniProt P09958) | inactive: -0.076
99 | GGNBP2 (UniProt Q9H3C7) | inactive: -0.02
